Patent US20250084173A1 (4B TECHNOLOGIES SUZHOU, published 2025)

How the values were obtained:
[1] = molecular target: recombinant P75^NTR protein; assay: ELISA on recombinant protein (FIG. 1a)
recombinant TrkC protein = assay: ELISA for cross-reactivity on recombinant P75^NTR, TrkA, TrkB and TrkC (FIG. 1a)
recombinant TrkB protein = assay: as above

Measured: binding

B1: 27A6 (antibody, mouse IgG1, V domains shown)
VH: QVQLQQSGAELMEPGASVKISCKATGYTFSRYWIEWVQQRPGHGLEWIGEILPGSGTTNYNENFRGKATFTADTSSNTVYMQLISLTSEDSAVYYCARSYYGDFDAYWGQGTLVTVSA
VL: QAVVTQESALTTSPGETVTLTCRSSIGAVTTSNHANWVQEKPDHLFTGLIGGTNNRAPGVPARFSGSLIGDKAVLTITGAQTEDEAIYFCALWYSNHWVFGGGTKLTVLG
notes: also called TrkA antibody; TrkA antibody of the present application
no binding: [1] | recombinant TrkC protein | recombinant TrkB protein

These are yes or no findings as the source states them, for the method shown.
